# In patent publication US20240000814A1, “TREATING ALCOHOL USE DISORDER USING PSILOCYBIN” (New York University, priority 2022, published 2024):
# At least one compound was matched to its structure with a doubt left.
# Legend:
# AUD patients [1] = experiment: Drinking-related problems, Short Index of Problems (SIP-2R); format: in vivo, human; details: week 24 and/or week 36
# Description: (§1) The pre-specified primary drinking outcome was the percentage of heavy drinking days (PH DD) during […], assessed at weeks 8, 12, 24, and 36 using the timeline followback, a reliable and valid calendar-based method which is the gold standard outcome for AUD clinical trials.^43-47 Secondary outcomes included percent drinking days (PDD), average drinks per day (DPD), and dichotomous outcomes: abstinence, lack of heavy drinking days, and reduction in World Health Organization risk level^48 by one, two, or three levels. Hair or fingernail samples were collected at week 24 and assayed for ethylglucuronide (EtG) concentration to confirm self-reported abstinence. The Short Index of Problems (SIP-2R)^49 was used to assess drinking-related problems at baseline and weeks 12, 24, and 36.
# Treatment contrasts for dichotomous outcomes were obtained using Chi-squared statistics. Effects of treatment on problems related to drinking were compared using univariate mixed models for repeated measures (MMRM) and generalized linear models. Hedges'g was computed as a measure of effect size for between- and within-group differences on continuous outcomes, and odds ratios were computed for dichotomous outcomes. No correction was made for multiple comparisons, so analyses of secondary outcomes should be considered exploratory.
# [2] = tested on: alcohol-dependent participants; details: 32-week follow-up period, psilocybin 21-28 mg/70 kg, open-label; cited from earlier work
# AUD patients [3] = experiment: Double-blind randomized trial of psilocybin-assisted treatment of AUD: drinking outcomes by timeline followback; format: in vivo, human; details: for Decreases in drinking over and above active placebo and psychotherapy: psilocybin in combination with psychotherapy
# Procedure: Design: In this double-blind trial, participants were offered 12 weeks of manualized psychotherapy and were randomly assigned to receive psilocybin vs. diphenhydramine during two day-long medication sessions at week 4 and 8. Outcomes were assessed over the 32-week double-blind period following the first dose of study medication.
# Interventions: Study medications were psilocybin 25 mg/70 kg vs. diphenhydramine 50 mg (first session) and psilocybin 25-40 mg/70 kg vs. diphenhydramine 50-100 mg (second session). Psychotherapy included motivational enhancement therapy and cognitive-behavioral therapy.
# Qualifying participants were assessed at screening, baseline (week 0), and weeks 4, 5, 8, 9, 12, 24, and 36. They were randomly assigned in a 1:1 ratio to receive either psilocybin or diphenhydramine, administered in two eight-hour sessions at weeks 4 and 8. All participants who completed the double-blind observation period (weeks 5-36) and still met safety criteria were offered an open-label psilocybin session at week 38, including four additional psychotherapy sessions and assessment for an additional 18 weeks. Participants received up to a total of $560 for completing assessments in the course of the trial, but were not reimbursed for attending the therapy and medication sessions.
# All participants were offered a total of 12 psychotherapy sessions from a team of two therapists including a licensed psychiatrist: 4 before the first medication session, 4 between the first and second medication sessions, and 4 in the month following the second medication session. […]
# as §1, with “Hair or fingernail samples were collected at week 24 and assayed for ethylglucuronide (EtG) concentration to confirm self-reported abstinence. The Short Index of Problems (SIP-2R)^49 was used to assess drinking-related problems at baseline and weeks 12, 24, and 36.” left out
smiles,measurement,setting,value
"CN(C)CCc1c[nH]c2cccc(OP(=O)(O)O)c12 [Psilocybin, [3-[2-(dirnethylamino)ethyl]-1H-indo1-4-yl] dihydrogen phosphate]",Reductions in several categories of drinking-related problems,AUD patients [1],moderate to large reductions
same,Change in drinking,[2],large reductions in drinking
same,Average daily alcohol consumption (number of standard drinks per day) compared with diphenhydramine group,AUD patients [3]; 32-week double-blind period,significantly lower
same,Decreases in drinking over and above active placebo and psychotherapy,AUD patients [3],robust decreases in drinking
same,Decreases in drinking over and above active placebo and psychotherapy,AUD patients [3]; listed as psilocybin,robust and sustained decreases in drinking
